Data reported in the supplement of paper PMC12889115.
This is one part of the list. Values are raw readings; no control value is given beside them.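 Primary screen: polymyxin B was added at a level permeabilizing Salmonella outer membranes while sparing inner membranes. DMSO wells, both with and without polymyxin B, established maximum growth. Plate-to-plate variation meant each plate was ranked on its own, and the lowest-OD600 compounds were selected as hits.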

System: Salmonella enterica serovar Typhimurium SL1344
Test: bacterial growth OD600 after 18 h with compound and polymyxin B; higher = more bacterial growth (less inhibition)
Conditions: 50 µM, Mueller-Hinton broth

Row | Compound | bacterial growth OD600 (polymyxin B 0.75 µg/mL) | bacterial growth OD600 (polymyxin B 1 µg/mL)
1 | CCN1CCN(C2(C(=O)NCCCSC)Cc3ccccc3C2)CC1 | 0.771 | –
2 | O=C(NCCCc1ccccn1)c1ccc(N2CCC(N3CCCC3)CC2)nc1 | 0.798 | –
3 | Cc1nc(N2CCCCCCC2)ncc1C(C)NC(C)C (centres undefined) | – | 0.661
4 | COc1cc(CN2CCN(C3CCCCC3)CC2CCO)cc(OC)c1 (centres undefined) | – | 0.814
5 | O=C(c1cccnc1)N1CCC2(CCCN(Cc3cccc(F)c3F)C2)C1 (centres undefined) | – | 1.11
6 | COCC(=O)Nc1cc(C(=O)NC(C)Cc2ccccn2)cc2ncn(CCc3ccccc3)c12 (centres undefined) | 0.794 | –
7 | Cc1ccccc1CCN1CCCC(CN(C)C(=O)C2(C)CCCCC2)C1 (centres undefined) | – | 0.723
8 | CC1CN(Cc2nc3ccccc3n2C)Cc2cc(Cl)ccc2O1 (centres undefined) | 0 | –
9 | O=C(c1ccc(OC2CCN(C(=O)C3CC3)CC2)cc1)N1CCCCCC1 | – | 0.886
10 | CN1CCN(c2ccc(C(=O)NCCC3COc4ccccc4O3)cn2)CC1 (centres undefined) | – | 0.846
11 | CN(C(=O)c1cccc(-n2cccn2)c1)C1CCCN(CCc2ccccc2)C1 (centres undefined) | – | 1.22
12 | COc1cccc(NC(=O)CCC2CCN(C(=O)c3cccnc3SC)CC2)c1 | – | 1.02
13 | Cc1cc(C)n(-c2ccc(F)cc2CNCc2cccnc2N(C)C)n1 | 0.812 | –
14 | Cc1nc2cc(OCc3cc(C(=O)N(CCO)Cc4ccccc4)no3)ccc2s1 | – | 0.769
15 | O=C(c1nc2sccn2c1CNCCCOc1cccnc1)N1CCCCCCC1 | – | 0.916
16 | O=C(Cc1c[nH]c2ccccc12)NCCN1Cc2ccccc2OC(c2ccccc2)C1 (centres undefined) | 0.61 | –
17 | OCC1(Cc2ccccc2F)CCCN(C2CCN(Cc3ccccc3)CC2)C1 (centres undefined) | 0.859 | –
18 | COc1cc2nc(N(C)C)c(CNCCc3cccc(Cl)c3)cc2c(OC)c1OC | 0.775 | –
19 | O=C(C1CCCN(Cc2nc(C(c3ccccc3)c3ccccc3)no2)C1)N1CCOCC1 (centres undefined) | – | 0.988

Shown as a markdown table: two of the compounds above.

| Row | Compound | bacterial growth OD600 (polymyxin B 0.75 µg/mL) | bacterial growth OD600 (polymyxin B 1 µg/mL) |
| --- | --- | --- | --- |
| 3 | Cc1nc(N2CCCCCCC2)ncc1C(C)NC(C)C (centres undefined) | – | 0.661 |
| 4 | COc1cc(CN2CCN(C3CCCCC3)CC2CCO)cc(OC)c1 (centres undefined) | – | 0.814 |
